PubChem BioAssay AID652272 – Drosophila RNAi Screening Center – 2013
Screen: 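Genes whose knock-down decreases or increases Hedgehog reporter output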 (primary screen). Cells: Drosophila clone 8 (Cl8) cells. Reagent: long dsRNA against Drosophila genes. Detection: 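Plate reader light from a firefly reporter under a ptc promoter fragment that responds to Hedgehog, with Renilla light as transfection reference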. Direction: firefly Hh reporter signal: higher = more ptc reporter light; Renilla reference signal: higher = more Renilla control light. Call rule: 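Hit when the z-score averaged over two replicates is under -2 or over +3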. Meaning of the calls: active = hit: reporter lowered or raised; inactive = not a hit.
The deposit covers about 21,000 reagents; shown is a random part of those that have a named target and a result. In the full data, 503 (2.4%) got an active call. 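Raw plate light values, not normalised; calls rest on replicate z-scores that were not deposited; hits include reporter decreases as well as increases.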 Reagents against one gene are numbered here. Names joined by + are all predicted targets of the reagent. The record does not give: the amount of reagent, the time to read-out.

gene | dsRNA no. | firefly Hh reporter signal, replicate 1 | firefly Hh reporter signal, replicate 2 | firefly Hh reporter signal, replicate 3 | Renilla reference signal, replicate 1 | Renilla reference signal, replicate 2 | Call
Dlg5 (GeneID 34573) | 1 | 63186 | 98071 | – | 2708 | 4326 | inactive
Tdc2 (GeneID 246620) | 1 | 98137 | 67061 | – | 2545 | 3347 | inactive
CG34370 (GeneID 5740565) | 1 | 1.68e5 | 2.99e5 | – | 5123 | 14805 | inactive
CG34370 (GeneID 5740565) | 2 | 90321 | 39003 | – | 2288 | 3559 | inactive
CG34370 (GeneID 5740565) | 3 | 1.12e5 | 56434 | – | 2630 | 5158 | inactive
CG34370 (GeneID 5740565) | 4 | 1.00e5 | 38289 | – | 2464 | 3592 | inactive
Mkp + CG34140 | 1 | 1.06e5 | 58916 | – | 4672 | 2602 | inactive
Dim1 (GeneID 33645) | 1 | 74327 | 41312 | – | 2100 | 4545 | inactive
CG14860 (GeneID 41803) | 1 | 1.40e5 | 1.37e5 | – | 5792 | 2839 | inactive
Cyp310a1 (GeneID 35115) | 1 | 79127 | 68760 | – | 3443 | 2896 | inactive
Ir7b (GeneID 31690) | 1 | 40156 | 1.22e5 | – | 2236 | 6874 | inactive
CG33981 + fab1 | 1 | 1.24e5 | 1.04e5 | – | 5784 | 4324 | inactive
Hmg-2 (GeneID 37407) | 1 | 56035 | 55033 | – | 2203 | 2464 | inactive
CG30403 (GeneID 246595) | 1 | 5.88e5 | 5.00e5 | 58439 | 2275 | 3275 | inactive
Ephrin (GeneID 43799) | 1 | 96552 | 2.16e5 | – | 3668 | 7547 | inactive
Pcf11 (GeneID 36658) | 1 | 32956 | 21012 | – | 2457 | 512 | inactive
CheB38c (GeneID 35346) | 1 | 79578 | 60928 | – | 2262 | 5520 | inactive
CG43100 (retired record) (GeneID 12798302) | 1 | 5.07e5 | 1.43e5 | – | 22217 | 6096 | inactive
CanB (GeneID 44317) | 1 | 51308 | 1.38e5 | – | 1026 | 4908 | inactive
Pmvk (GeneID 35255) | 1 | 97024 | 67523 | – | 2384 | 5658 | inactive
CG10527 (GeneID 37393) | 1 | 92118 | 56832 | – | 3968 | 2521 | inactive
Oatp33Ea (GeneID 34660) | 1 | 48259 | 19024 | – | 3344 | 1749 | active
Rpn6 (GeneID 36638) | 1 | 19667 | 19520 | – | 2123 | 2161 | active
CG5810 (GeneID 42513) | 1 | 6.94e5 | 1.23e5 | – | 40340 | 594 | inactive
CG31612 (GeneID 35427) | 1 | 1.32e5 | 74296 | – | 3321 | 7467 | inactive
CG31612 (GeneID 35427) | 2 | 92775 | 54487 | – | 2157 | 5778 | inactive
sas (GeneID 40861) | 1 | 69156 | 74380 | – | 2779 | 2448 | inactive
p24-1 (GeneID 32140) | 1 | 40091 | 1.27e5 | – | 1312 | 5331 | inactive
Nadk1a (GeneID 36506) | 1 | 1.60e5 | 3.66e5 | – | 4331 | 14459 | inactive
Nadk1a (GeneID 36506) | 2 | 1.53e5 | 94342 | – | 5968 | 3616 | inactive
Arpc1 (GeneID 34793) | 1 | 65352 | 59677 | – | 3568 | 2838 | inactive
vlc (GeneID 46078) | 1 | 94448 | 72353 | – | 2067 | 6600 | inactive
CG31810 (GeneID 318955) | 1 | 1.02e5 | 1.96e5 | – | 2940 | 9130 | inactive
plu (GeneID 44848) | 1 | 67357 | 41208 | – | 1888 | 2917 | inactive
cni (GeneID 34967) | 1 | 1.87e5 | 55284 | – | 4384 | 3458 | inactive
CG3071 (GeneID 31213) | 1 | 1.42e5 | 1.24e5 | – | 3931 | 4349 | inactive
mat (GeneID 38107) | 1 | 1.43e5 | 66416 | – | 4835 | 5131 | inactive
Hs3st-B (GeneID 32918) | 1 | 1.01e5 | 3.17e5 | – | 2801 | 12800 | inactive
Polr2I (GeneID 41741) | 1 | 86648 | 66742 | – | 2514 | 1797 | inactive
dib (GeneID 45282) | 1 | 1.07e5 | 65537 | – | 3916 | 2475 | inactive
wal (GeneID 36252) | 1 | 44992 | 42701 | – | 2071 | 1735 | inactive
CG15449 (GeneID 33079) | 1 | 1.49e5 | 3.04e5 | – | 5733 | 13412 | inactive
mRpS7 (GeneID 34412) | 1 | 95365 | 94976 | – | 2969 | 3200 | inactive
p115 (GeneID 31698) | 1 | 59376 | 2.41e5 | – | 1803 | 8557 | inactive
ras (GeneID 43873) | 1 | 88269 | 94038 | – | 2005 | 1891 | inactive
Or85d (GeneID 41011) | 1 | 68763 | 89195 | – | 2576 | 2347 | inactive
CG32425 (GeneID 40273) | 1 | 1.14e5 | 68615 | – | 3596 | 1840 | inactive
CG32425 (GeneID 40273) | 2 | 79073 | 61592 | – | 3181 | 2672 | inactive
CG32812 (GeneID 31074) | 1 | 61568 | 1.57e5 | – | 1712 | 5963 | inactive
Vps13B (GeneID 43550) | 1 | 97052 | 1.45e5 | – | 3872 | 4438 | inactive
ImpL2 (GeneID 38513) | 1 | 96304 | 62824 | – | 4160 | 3106 | inactive
Cyt-b5-r (GeneID 35008) | 1 | 1.27e5 | 84240 | – | 3323 | 6807 | inactive
Dop2R (GeneID 33007) | 1 | 1.18e5 | 2.93e5 | – | 3837 | 11706 | inactive
Dop2R (GeneID 33007) | 2 | 1.32e5 | 3.69e5 | – | 3953 | 14245 | inactive
CG4250 (GeneID 37599) | 1 | 1.08e5 | 55271 | – | 2889 | 4964 | inactive
CG7768 (GeneID 39573) | 1 | 71801 | 42896 | – | 2881 | 1528 | inactive
Etf-QO (GeneID 36031) | 1 | 83770 | 37636 | – | 2224 | 2988 | inactive

Copied from above (9 entries):
gene | dsRNA no. | firefly Hh reporter signal, replicate 1 | firefly Hh reporter signal, replicate 2 | firefly Hh reporter signal, replicate 3 | Renilla reference signal, replicate 1 | Renilla reference signal, replicate 2 | Call
CG31810 (GeneID 318955) | 1 | 1.02e5 | 1.96e5 | – | 2940 | 9130 | inactive
plu (GeneID 44848) | 1 | 67357 | 41208 | – | 1888 | 2917 | inactive
cni (GeneID 34967) | 1 | 1.87e5 | 55284 | – | 4384 | 3458 | inactive
CG3071 (GeneID 31213) | 1 | 1.42e5 | 1.24e5 | – | 3931 | 4349 | inactive
mat (GeneID 38107) | 1 | 1.43e5 | 66416 | – | 4835 | 5131 | inactive
Hs3st-B (GeneID 32918) | 1 | 1.01e5 | 3.17e5 | – | 2801 | 12800 | inactive
Polr2I (GeneID 41741) | 1 | 86648 | 66742 | – | 2514 | 1797 | inactive
dib (GeneID 45282) | 1 | 1.07e5 | 65537 | – | 3916 | 2475 | inactive
wal (GeneID 36252) | 1 | 44992 | 42701 | – | 2071 | 1735 | inactive
